Source: PubChem BioAssay AID445 (National Center for Advancing Translational Sciences (NCATS), 2006)
Some of the results follow. The main result of the screen is listed elsewhere. These columns were measured beside it and carry no call. Compounds called inactive in the main read-out are mostly missing here. Potencies come from curve fits of mixed quality, noted in brackets.

Assay: IkB Signaling
Details: ABC-DLBCL IkBa-CBG/CBR dual luciferase ratio (green luciferase fused to IkBa over red control in OCI-Ly3 lymphoma cells), 4 h
Summary of the method: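 In this assay, an IκBα–CBG68 fusion accumulates when IKK-driven degradation is blocked; native CBR normalizes for cell number. OCI-Ly3 cells were treated 4 h with compound and doxycycline, then green and red light read after Chroma-Glo addition.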

[1] = measured here: control luc red channel unless noted

Question: For `COc1ccccc1Cn1c(CNS(=O)(=O)c2ccc3c(c2)CCCC3)nc2cccnc21`, which AC50 [1] is on record?
Answer: The AC50 was 39.8 µM [falling, single point].

Question: With `COc1ccccc1N1CCN(C(=O)CSc2nc3ccccc3nc2Cc2ccc(F)cc2)CC1` as the compound, how does the AC50 [1] read?
Answer: The AC50 was 20 µM [falling, partial curve].

Question: With `Cc1csc2nc(COc3ccc(NC(=O)COc4ccccc4F)cc3)cc(=O)n12` as the compound, how does the AC50 [1] read?
Answer: Its AC50 is 3.98 µM [rising, partial curve].

Question: With `CCC(=O)N1c2ccccc2CC1C(=O)NCCN1CCN(c2cccc(C)c2C)CC1` (stereo not drawn) as the compound, how does the AC50 [1] read?
Answer: The AC50 was 39.8 µM [falling, partial curve, poor fit].

Question: With `O=C(Nc1ccc(N2CCCCC2)cc1)c1cccnc1` as the compound, how does the AC50 [1] read?
Answer: The AC50 was 31.6 µM [falling, single point].

Question: Which AC50 [1] does the source give for `Cc1ccc(-c2nc3ccccc3o2)cc1NC(=O)c1cccc2c(Cl)cccc12` here?
Answer: Its AC50 is 3.98 µM [rising, full curve, poor fit].

Question: For `Cc1nc2sccn2c(=O)c1S(=O)(=O)Nc1ccc(N2CCN(S(C)(=O)=O)CC2)cc1`, which AC50 [1] is on record?
Answer: Its AC50 is 1 µM [falling, full curve].

Question: With `O=C(CSc1nc(-c2ccccc2)[nH]c1-c1ccccc1)Nc1ccc2c(c1)OCO2` as the compound, how does the AC50 [1] read?
Answer: The AC50 was 20 µM [falling, partial curve].

Question: Which AC50 [1] does the source give for `Cc1ccccc1NCc1cccn1-c1nnc(N2CCOCC2)s1` here?
Answer: Its AC50 is 7.94 µM [rising, single point].

Question: Which AC50 [1] does the source give for `O=[N+]([O-])c1cc(-c2nc(-c3ccccc3)no2)ccc1N1CCCC1` here?
Answer: Its AC50 is 39.8 µM [falling, single point].

Question: With `COc1cc(CNC(=O)CSCc2nc3cccnc3n2C2CCCCC2)cc(OC)c1OC` as the compound, how does the AC50 [1] read?
Answer: The AC50 was 1.26 µM [rising, full curve].

Question: With `Cc1ccc(C)c(NC(=O)CCc2nc(-c3ccc(C(C)(C)C)cc3)no2)c1` as the compound, how does the AC50 [1] read?
Answer: The AC50 was 12.6 µM [falling, partial curve].

Question: Which AC50 [1] does the source give for `CCOc1cc(C#N)c(NC(=O)c2cccc(S(=O)(=O)N3CCOCC3)c2)cc1OCC` here?
Answer: Its AC50 is 20 µM [falling, partial curve, poor fit].

Question: With `COc1cccc(NC(=O)CN(C)S(=O)(=O)c2cccs2)c1` as the compound, how does the AC50 [1] read?
Answer: Its AC50 is 39.8 µM [falling, single point].

Question: Which AC50 [1] does the source give for `CC1CCN(C(=O)CSc2nc(-c3ccc(C(C)C)cc3)no2)CC1` here?
Answer: Its AC50 is 39.8 µM [falling, single point].

Question: For `CCC1CCCCN1CCCNC(=O)c1ccc2c(c1)N(Cc1ccccc1F)C(=O)c1ccccc1S2(=O)=O` (stereo not drawn), which AC50 [1] is on record?
Answer: Its AC50 is 25.1 µM [rising, single point].

Question: For `COc1ccc2nc3oc(C(=O)N4CCCCC4)cc3cc2c1`, which AC50 [1] is on record?
Answer: Its AC50 is 12.6 µM [falling, partial curve].

Question: For `Cc1ccc(C(=O)Nc2ccc3c(c2)N(C)C(=O)c2ccccc2S3)cc1`, which AC50 [1] is on record?
Answer: Its AC50 is 2 µM [falling, partial curve].

Question: For `CCc1ccc(NC(=O)c2cc(S(=O)(=O)N3CCCC3)ccc2F)cc1`, which AC50 [1] is on record?
Answer: The AC50 was 12.6 µM [falling, partial curve].

Question: Which AC50 [1] does the source give for `Cc1cccc(-n2ncc(C(=O)N3CCc4ccccc4C3)c2C2CCN(C(=O)OC(C)(C)C)CC2)c1` here?
Answer: Its AC50 is 15.8 µM [falling, partial curve].

Question: For `Cc1oc2ccc(O)c(CN3CCCCCC3)c2c1C(=O)Nc1cccc(Cl)c1C`, which AC50 [1] is on record?
Answer: The AC50 was 31.6 µM [falling, single point].

Question: With `Cc1c(-c2nsc(NC(=O)c3cccs3)n2)nnn1-c1ccc(Cl)cc1` as the compound, how does the AC50 [1] read?
Answer: Its AC50 is 31.6 µM [rising, partial curve].

Question: With `Cc1nn2c(=O)cc(COC(=O)c3cccc(NC(=O)COc4ccc(C)c(C)c4)c3)nc2s1` as the compound, how does the AC50 [1] read?
Answer: The AC50 was 10 µM [falling, partial curve].

Question: Which AC50 [1] does the source give for `c1csc(-c2nn3c(C4COc5ccccc5O4)nnc3s2)c1` (stereo not drawn) here?
Answer: The AC50 was 15.8 µM [falling, partial curve].

Question: Which AC50 [1] does the source give for `CCSc1ncc(Cl)c(C(=O)N(Cc2ccccc2Cl)C2CCS(=O)(=O)C2)n1` (stereo not drawn) here?
Answer: Its AC50 is 39.8 µM [falling, single point].

Question: With `O=C(c1cccc(COc2ccc(Cl)cc2Cl)c1)N1CCN(c2ccccn2)CC1` as the compound, how does the AC50 [1] read?
Answer: Its AC50 is 10 µM [falling, partial curve].

Question: For `CCN(CC)CCCNC(=O)c1ccc2c(c1)N(Cc1c(F)cccc1Cl)C(=O)c1ccccc1S2`, which AC50 [1] is on record?
Answer: The AC50 was 5.01 µM [falling, partial curve].

Question: Which AC50 [1] does the source give for `O=C(NCCc1ccc(Cl)cc1)C(=O)NCC(c1ccco1)S(=O)(=O)c1cccs1` (stereo not drawn) here?
Answer: The AC50 was 6.31 µM [falling, single point].

Question: For `COc1ccc(-c2nc(-c3ccncc3)no2)cc1OC`, which AC50 [1] is on record?
Answer: The AC50 was 12.6 µM [falling, partial curve].

Question: Which AC50 [1] does the source give for `Cc1ccc(OCCSc2nc3ccc(NC(=O)c4ccc5c(c4)OCO5)cc3s2)cc1` here?
Answer: The AC50 was 39.8 µM [falling, single point].

Question: With `CCn1c(=O)c(C2=NS(=O)(=O)c3ccccc3N2)c(O)c2ccccc21` as the compound, how does the AC50 [1] read?
Answer: Its AC50 is 0.158 µM [falling, full curve].

Question: With `O=C(Nc1ccc(F)cc1)C1CCN(c2nc3ccccc3n3cccc23)CC1` as the compound, how does the AC50 [1] read?
Answer: Its AC50 is 15.8 µM [falling, partial curve].

Question: With `CCCc1ccc(OC(=O)CSc2nnc(-c3cccs3)o2)cc1` as the compound, how does the AC50 [1] read?
Answer: Its AC50 is 3.16 µM [falling, single point].

Question: With `CCS(=O)(=O)N1CCc2cc(C(=O)Nc3cccc(C)c3C)ccc21` as the compound, how does the AC50 [1] read?
Answer: The AC50 was 10 µM [falling, partial curve].

Question: Which AC50 [1] does the source give for `Cc1nc(-n2nc(C)c(Cc3ccccc3Cl)c2C)sc1C(=O)N1CCC(C)CC1` here?
Answer: Its AC50 is 12.6 µM [falling, partial curve].

Question: For `CCOC(=O)C(CC)Sc1ncnc2sc3c(c12)CCCC3` (stereo not drawn), which AC50 [1] is on record?
Answer: The AC50 was 31.6 µM [falling, partial curve].

Question: Which AC50 [1] does the source give for `COc1ccc(OCC(=O)N2CCN(C(=O)c3cc(OC)c(OC)c(OC)c3)CC2)cc1` here?
Answer: Its AC50 is 0.00501 µM [falling, full curve, poor fit].

Question: For `CCOc1ccc(C2N3CC4(C(C)C)CN2CC(C(C)C)(C3)C4=O)cc1OC` (stereo not drawn), which AC50 [1] is on record?
Answer: Its AC50 is 10 µM [falling, partial curve].

Question: For `CCN(C(=O)Cn1c(SCC(=O)Nc2ccc(OC)cc2)nc2ccccc21)c1cccc(C)c1`, which AC50 [1] is on record?
Answer: The AC50 was 3.16 µM [falling, partial curve].

Question: Which AC50 [1] does the source give for `O=C(COc1ccccc1)NCC(c1cccs1)S(=O)(=O)c1ccc(Cl)cc1` (stereo not drawn) here?
Answer: Its AC50 is 20 µM [falling, single point].

Question: Which AC50 [1] does the source give for `Cc1cc(C)n2c(Nc3ccccc3C)c(-c3cccs3)nc2n1` here?
Answer: Its AC50 is 20 µM [falling, single point].

Question: Which AC50 [1] does the source give for `COc1cccc(C(=O)Nc2ccc(-n3nncc3-c3ccc(Br)cc3)cc2)c1OC` here?
Answer: Its AC50 is 39.8 µM [falling, partial curve].

Question: With `Cc1ccc(S(=O)(=O)N(CC(O)Cn2c3ccccc3c3ccccc32)c2cccc(C(=O)N(C)C)c2)cc1` (stereo not drawn) as the compound, how does the AC50 [1] read?
Answer: Its AC50 is 15.8 µM [falling, partial curve].

Question: For `Cc1ccc(CN2C(=O)c3ccccc3Sc3ccc(C(=O)NCc4ccco4)cc32)cc1`, which AC50 [1] is on record?
Answer: Its AC50 is 12.6 µM [falling, partial curve].

Question: With `CCC1=C(C[C@H]2NCCc3ccccc32)C[C@@H]2c3cc(OC)c(OC)cc3CCN2C1` as the compound, how does the AC50 [1] read?
Answer: The AC50 was 3.16 µM [falling, partial curve].

Question: For `Cc1ccc(Oc2nc3c(c(=O)n(Cc4ccccc4)c(=O)n3C)n2C)cc1C`, which AC50 [1] is on record?
Answer: The AC50 was 12.6 µM [falling, partial curve].

Question: With `c1ccc(CCn2nnnc2C(c2cccs2)N2CCN(Cc3ccc4c(c3)OCO4)CC2)cc1` (stereo not drawn) as the compound, how does the AC50 [1] read?
Answer: Its AC50 is 20 µM [falling, partial curve].

Question: For `CCN(C(=O)C1CCC(CNS(=O)(=O)c2cccc3nsnc23)CC1)c1ccccc1` (stereo not drawn), which AC50 [1] is on record?
Answer: The AC50 was 31.6 µM [falling, single point].

Question: For `CC1(C)CC(=O)c2cc(C(=O)Nc3ccc(Br)cc3)c(=O)[nH]c2C1`, which AC50 [1] is on record?
Answer: The AC50 was 0.794 µM [rising, full curve].

Question: With `CCN(C(=O)C1CCC(CNS(=O)(=O)c2cccc3nsnc23)CC1)c1cccc(C)c1` (stereo not drawn) as the compound, how does the AC50 [1] read?
Answer: Its AC50 is 12.6 µM [falling, partial curve].

Question: For `CC[C@]1(O)C[C@H]2CN(CCc3c([nH]c4ccccc34)[C@](C(=O)OC)(c3cc4c(cc3OC)N(C=O)[C@H]3[C@@](O)(C(=O)OC)[C@H](OC(C)=O)[C@@]5(CC)C=CCN6CC[C@]43[C@H]65)C2)C1`, which AC50 (measured here: IkB-luc green channel) is on record?
Answer: The AC50 was 0.158 µM [rising, full curve].

Question: And the AC50 (measured here: control luc red channel)?
Answer: The AC50 was 0.0794 µM [rising, full curve].

Question: Which AC50 [1] does the source give for `O=C(Cc1ccc(NC(=O)N2CCSc3ncccc32)cc1)NCc1ccccc1` here?
Answer: Its AC50 is 39.8 µM [falling, single point].

Question: Which AC50 [1] does the source give for `COc1ccc2c(c1)CC(C(=O)NCCN1CCN(c3cccc(Cl)c3)CC1)CO2` (stereo not drawn) here?
Answer: Its AC50 is 15.8 µM [falling, partial curve, poor fit].

Question: For `O=C(c1ccc2c(c1)N(Cc1ccc(F)cc1)CCS2)N1CCN(c2ccccc2)CC1`, which AC50 [1] is on record?
Answer: The AC50 was 3.16 µM [falling, full curve].

Question: With `CCOC(=O)C1CCN(Cc2c(O)ccc3ccccc23)CC1` as the compound, how does the AC50 [1] read?
Answer: The AC50 was 15.8 µM [falling, partial curve].

Question: Which AC50 [1] does the source give for `c1ccc(-n2cnnc2SCc2nc3ccccc3s2)cc1` here?
Answer: Its AC50 is 1.58 µM [falling, full curve].

Question: With `Cc1ccc(CNC(=O)c2sc3nc4n(c(=O)c3c2C)CCCC4)cc1` as the compound, how does the AC50 [1] read?
Answer: Its AC50 is 25.1 µM [falling, partial curve].

Question: Which AC50 [1] does the source give for `Cc1nc(Oc2ccccc2C)c2oc3ccccc3c2n1` here?
Answer: The AC50 was 39.8 µM [falling, single point].

Question: For `COc1ccc2nc3oc(C(=O)Nc4cccc(C(F)(F)F)c4)cc3cc2c1`, which AC50 [1] is on record?
Answer: The AC50 was 15.8 µM [rising, single point].

Question: Which AC50 [1] does the source give for `COc1ccc(N2CCN(CCCNC(=O)c3ccc4nc(CCc5ccccc5)oc4c3)CC2)cc1` here?
Answer: Its AC50 is 25.1 µM [falling, single point].

Question: With `COc1ccc(NC(=O)CSc2c3c(nc4ccc(Cl)cc24)CCCC3)cc1Cl` as the compound, how does the AC50 [1] read?
Answer: Its AC50 is 7.94 µM [falling, full curve].

Question: With `Cc1ccccc1NC(=O)CS(=O)(=O)c1cccc2nsnc12` as the compound, how does the AC50 [1] read?
Answer: Its AC50 is 31.6 µM [rising, partial curve, poor fit].
